Laboratory results as given in paper doi:10.1101/2020.12.08.415711.
No constants are given. Whether binding was seen depends on the method and setting. Binding seen in cells or lysates may run through a third protein. A yes stands for co-enrichment or nearness to the bait. Other partners may have been found.

Sequences of proteins named here, by UniProt entry; tags and fusion partners are left off. A change or cut given only in a name is not applied to a line headed by its entry.
UniProt Q9SXA1: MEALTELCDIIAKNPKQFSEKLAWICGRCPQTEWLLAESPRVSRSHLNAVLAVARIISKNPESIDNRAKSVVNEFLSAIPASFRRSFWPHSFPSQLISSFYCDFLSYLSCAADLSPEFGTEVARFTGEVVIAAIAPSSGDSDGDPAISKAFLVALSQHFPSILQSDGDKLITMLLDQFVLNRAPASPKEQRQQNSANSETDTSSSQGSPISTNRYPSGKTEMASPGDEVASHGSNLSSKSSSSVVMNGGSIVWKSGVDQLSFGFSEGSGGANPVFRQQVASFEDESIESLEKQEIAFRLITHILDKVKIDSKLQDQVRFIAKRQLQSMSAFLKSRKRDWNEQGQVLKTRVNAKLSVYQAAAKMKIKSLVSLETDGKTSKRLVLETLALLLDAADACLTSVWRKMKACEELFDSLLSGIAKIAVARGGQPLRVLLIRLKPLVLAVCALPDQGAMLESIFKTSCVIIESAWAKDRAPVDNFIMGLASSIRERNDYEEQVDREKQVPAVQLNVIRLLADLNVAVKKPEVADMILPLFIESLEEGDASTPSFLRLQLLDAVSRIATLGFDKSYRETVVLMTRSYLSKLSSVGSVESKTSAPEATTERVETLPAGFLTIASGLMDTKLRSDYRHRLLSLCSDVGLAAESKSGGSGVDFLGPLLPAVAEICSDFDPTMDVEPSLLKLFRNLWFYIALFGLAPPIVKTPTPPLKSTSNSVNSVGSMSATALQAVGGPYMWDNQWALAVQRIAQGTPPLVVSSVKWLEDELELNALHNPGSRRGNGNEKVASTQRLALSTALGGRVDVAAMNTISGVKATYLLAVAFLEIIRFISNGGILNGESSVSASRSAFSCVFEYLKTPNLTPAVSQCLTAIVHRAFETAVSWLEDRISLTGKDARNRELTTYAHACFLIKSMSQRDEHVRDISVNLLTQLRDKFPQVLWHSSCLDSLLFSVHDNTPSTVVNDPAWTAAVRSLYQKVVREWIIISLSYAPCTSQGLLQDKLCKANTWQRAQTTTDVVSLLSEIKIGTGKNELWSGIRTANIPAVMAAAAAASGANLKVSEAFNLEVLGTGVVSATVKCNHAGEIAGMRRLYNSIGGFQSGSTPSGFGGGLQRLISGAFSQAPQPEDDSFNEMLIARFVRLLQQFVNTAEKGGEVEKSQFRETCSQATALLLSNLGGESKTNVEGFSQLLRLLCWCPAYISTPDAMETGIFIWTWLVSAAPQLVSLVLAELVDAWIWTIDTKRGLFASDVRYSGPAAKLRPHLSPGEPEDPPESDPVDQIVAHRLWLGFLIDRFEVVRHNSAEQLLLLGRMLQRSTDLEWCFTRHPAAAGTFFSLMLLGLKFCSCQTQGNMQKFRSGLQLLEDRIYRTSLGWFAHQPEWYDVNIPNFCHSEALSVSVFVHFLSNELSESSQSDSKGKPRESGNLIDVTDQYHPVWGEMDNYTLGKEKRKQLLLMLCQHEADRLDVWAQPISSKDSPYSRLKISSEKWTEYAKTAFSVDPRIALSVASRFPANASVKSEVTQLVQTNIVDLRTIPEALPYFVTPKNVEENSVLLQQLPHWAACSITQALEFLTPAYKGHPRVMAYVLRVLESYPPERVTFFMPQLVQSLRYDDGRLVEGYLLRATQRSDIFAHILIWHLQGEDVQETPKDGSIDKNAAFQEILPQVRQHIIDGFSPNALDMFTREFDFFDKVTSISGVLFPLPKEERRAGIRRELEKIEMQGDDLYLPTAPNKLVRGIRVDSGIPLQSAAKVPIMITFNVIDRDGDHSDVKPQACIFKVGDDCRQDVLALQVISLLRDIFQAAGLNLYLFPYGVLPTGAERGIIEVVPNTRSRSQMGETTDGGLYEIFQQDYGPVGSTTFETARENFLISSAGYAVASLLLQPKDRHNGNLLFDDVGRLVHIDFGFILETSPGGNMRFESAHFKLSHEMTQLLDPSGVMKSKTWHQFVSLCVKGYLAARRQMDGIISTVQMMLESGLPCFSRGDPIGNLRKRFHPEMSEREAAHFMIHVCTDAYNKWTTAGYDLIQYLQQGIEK
UniProt Q9FMI8: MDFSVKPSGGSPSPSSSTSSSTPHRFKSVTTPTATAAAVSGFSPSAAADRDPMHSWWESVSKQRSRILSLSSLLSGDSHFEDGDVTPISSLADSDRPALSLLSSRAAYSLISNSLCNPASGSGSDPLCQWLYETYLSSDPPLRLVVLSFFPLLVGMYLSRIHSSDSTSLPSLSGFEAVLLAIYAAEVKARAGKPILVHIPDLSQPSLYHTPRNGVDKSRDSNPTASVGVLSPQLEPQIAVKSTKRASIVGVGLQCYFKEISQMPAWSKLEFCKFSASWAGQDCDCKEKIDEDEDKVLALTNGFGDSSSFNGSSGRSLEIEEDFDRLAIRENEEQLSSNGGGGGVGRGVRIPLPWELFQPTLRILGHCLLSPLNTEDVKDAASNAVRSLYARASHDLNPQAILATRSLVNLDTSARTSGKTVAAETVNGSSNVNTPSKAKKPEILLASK

Tests used:
[1] = target: T1, NPGR2-mCITRINE (Arabidopsis thaliana) (UniProt Q66GN3); assay: affinity purification with mass spectrometry
T1 sequence: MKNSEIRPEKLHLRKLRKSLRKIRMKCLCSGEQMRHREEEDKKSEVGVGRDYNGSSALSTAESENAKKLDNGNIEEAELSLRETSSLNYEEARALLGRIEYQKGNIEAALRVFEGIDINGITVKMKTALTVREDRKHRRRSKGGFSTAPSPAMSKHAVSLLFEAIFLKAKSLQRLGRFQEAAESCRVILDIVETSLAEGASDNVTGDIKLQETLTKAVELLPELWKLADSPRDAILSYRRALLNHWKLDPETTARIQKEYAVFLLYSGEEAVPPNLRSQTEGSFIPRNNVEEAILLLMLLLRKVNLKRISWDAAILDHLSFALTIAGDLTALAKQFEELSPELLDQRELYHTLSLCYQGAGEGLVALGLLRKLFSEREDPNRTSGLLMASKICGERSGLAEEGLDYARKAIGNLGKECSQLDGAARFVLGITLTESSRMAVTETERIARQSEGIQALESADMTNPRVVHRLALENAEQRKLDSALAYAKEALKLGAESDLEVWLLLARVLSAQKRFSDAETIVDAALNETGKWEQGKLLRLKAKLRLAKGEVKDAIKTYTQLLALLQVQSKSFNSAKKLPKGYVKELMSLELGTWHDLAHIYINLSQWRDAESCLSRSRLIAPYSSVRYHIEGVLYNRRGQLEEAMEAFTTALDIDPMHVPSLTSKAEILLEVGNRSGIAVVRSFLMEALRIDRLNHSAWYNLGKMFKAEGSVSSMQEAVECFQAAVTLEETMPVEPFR

[2] = target: mCITRINE-PI4Kα1 (Arabidopsis thaliana) (UniProt Q9SXA1); assay: affinity purification with mass spectrometry

binding [1]	binding [2]	Substance
binds		PI4Kα1, endogenous (from UniProt Q9SXA1 1-2028) (enzyme)
binds	binds	HYCCIN-CONTAINING2 (HYC2), endogenous (from UniProt Q9FMI8)
